Article doi:10.1101/714741
Results are given in words; binding and its absence hold for the method and conditions named. Binding seen in cells or lysates may run through a third protein. Some binding calls cover weakened binding; strength is not graded here.

By UniProt entry, the sequences of proteins in these tests, tags left out.
UniProt P48431: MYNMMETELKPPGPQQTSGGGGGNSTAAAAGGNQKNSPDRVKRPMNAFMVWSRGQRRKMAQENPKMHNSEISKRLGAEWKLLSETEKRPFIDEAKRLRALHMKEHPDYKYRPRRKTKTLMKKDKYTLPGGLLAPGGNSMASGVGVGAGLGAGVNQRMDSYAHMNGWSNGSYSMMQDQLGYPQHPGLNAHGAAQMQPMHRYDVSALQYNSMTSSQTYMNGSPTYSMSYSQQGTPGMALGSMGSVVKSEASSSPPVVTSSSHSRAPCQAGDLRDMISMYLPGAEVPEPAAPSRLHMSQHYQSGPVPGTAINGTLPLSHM
UniProt Q93008: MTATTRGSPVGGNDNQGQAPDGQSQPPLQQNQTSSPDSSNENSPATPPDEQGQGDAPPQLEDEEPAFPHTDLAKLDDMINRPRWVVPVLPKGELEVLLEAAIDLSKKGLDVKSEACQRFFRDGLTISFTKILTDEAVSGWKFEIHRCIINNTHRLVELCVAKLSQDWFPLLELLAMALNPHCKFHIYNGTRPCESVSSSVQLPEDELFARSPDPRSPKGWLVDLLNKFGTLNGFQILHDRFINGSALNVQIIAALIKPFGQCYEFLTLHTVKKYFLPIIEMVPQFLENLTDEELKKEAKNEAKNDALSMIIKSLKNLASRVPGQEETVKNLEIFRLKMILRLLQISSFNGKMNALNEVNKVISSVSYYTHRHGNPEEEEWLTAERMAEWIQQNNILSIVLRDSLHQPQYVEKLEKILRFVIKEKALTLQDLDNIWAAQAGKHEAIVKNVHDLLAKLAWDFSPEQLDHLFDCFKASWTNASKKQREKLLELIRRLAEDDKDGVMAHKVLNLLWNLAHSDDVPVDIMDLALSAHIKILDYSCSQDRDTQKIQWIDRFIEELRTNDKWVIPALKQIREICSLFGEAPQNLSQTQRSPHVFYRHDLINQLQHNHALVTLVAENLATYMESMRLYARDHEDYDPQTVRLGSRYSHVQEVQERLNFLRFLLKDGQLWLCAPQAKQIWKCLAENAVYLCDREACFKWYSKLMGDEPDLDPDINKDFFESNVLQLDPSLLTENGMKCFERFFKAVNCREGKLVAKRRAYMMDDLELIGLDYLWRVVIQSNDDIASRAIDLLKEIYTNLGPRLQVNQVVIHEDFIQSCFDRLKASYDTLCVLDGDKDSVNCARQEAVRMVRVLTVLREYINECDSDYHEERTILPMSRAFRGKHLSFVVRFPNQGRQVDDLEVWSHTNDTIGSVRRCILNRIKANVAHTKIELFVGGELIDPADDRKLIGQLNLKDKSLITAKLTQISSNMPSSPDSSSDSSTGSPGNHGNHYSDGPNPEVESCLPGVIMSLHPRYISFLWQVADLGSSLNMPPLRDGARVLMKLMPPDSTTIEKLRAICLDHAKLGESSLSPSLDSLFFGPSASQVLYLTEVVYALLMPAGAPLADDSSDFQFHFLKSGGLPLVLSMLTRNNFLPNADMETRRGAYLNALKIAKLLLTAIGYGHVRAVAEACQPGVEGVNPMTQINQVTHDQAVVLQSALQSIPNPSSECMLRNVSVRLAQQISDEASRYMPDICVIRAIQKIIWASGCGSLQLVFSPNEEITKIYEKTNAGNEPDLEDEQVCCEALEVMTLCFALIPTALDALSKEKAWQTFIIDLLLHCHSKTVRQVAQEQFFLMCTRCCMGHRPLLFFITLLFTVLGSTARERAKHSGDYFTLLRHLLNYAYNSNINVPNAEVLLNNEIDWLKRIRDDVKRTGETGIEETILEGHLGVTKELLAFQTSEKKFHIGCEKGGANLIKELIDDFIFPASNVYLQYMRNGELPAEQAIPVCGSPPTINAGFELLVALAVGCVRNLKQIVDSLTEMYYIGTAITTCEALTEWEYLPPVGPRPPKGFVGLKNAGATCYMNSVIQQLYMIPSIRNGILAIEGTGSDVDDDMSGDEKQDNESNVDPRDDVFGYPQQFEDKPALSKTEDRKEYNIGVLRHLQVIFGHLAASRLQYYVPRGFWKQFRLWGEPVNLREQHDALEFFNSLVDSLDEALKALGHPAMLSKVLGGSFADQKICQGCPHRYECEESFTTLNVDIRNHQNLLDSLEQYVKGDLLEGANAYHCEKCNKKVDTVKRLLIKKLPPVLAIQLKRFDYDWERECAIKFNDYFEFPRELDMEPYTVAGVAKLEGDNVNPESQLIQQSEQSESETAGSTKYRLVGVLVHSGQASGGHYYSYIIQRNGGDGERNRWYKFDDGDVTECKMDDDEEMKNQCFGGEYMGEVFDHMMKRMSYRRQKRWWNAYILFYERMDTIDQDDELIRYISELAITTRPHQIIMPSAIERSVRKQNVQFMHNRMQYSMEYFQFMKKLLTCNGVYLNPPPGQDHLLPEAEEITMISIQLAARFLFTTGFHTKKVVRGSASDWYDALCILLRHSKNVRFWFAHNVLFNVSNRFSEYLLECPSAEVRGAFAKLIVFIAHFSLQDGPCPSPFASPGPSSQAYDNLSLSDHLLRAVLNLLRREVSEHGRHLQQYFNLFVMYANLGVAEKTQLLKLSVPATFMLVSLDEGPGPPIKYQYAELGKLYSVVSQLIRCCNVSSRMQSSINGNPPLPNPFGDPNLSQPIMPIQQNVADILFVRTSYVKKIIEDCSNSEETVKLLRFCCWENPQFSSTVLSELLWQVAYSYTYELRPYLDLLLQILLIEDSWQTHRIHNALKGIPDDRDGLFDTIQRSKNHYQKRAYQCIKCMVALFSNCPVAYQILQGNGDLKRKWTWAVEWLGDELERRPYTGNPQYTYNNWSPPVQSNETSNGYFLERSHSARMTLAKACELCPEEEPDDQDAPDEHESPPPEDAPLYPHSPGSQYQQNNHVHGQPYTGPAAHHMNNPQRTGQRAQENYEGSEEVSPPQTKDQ

Tests used:
SOX2-HA (human) = SOX2-HA (human) (UniProt P48431); experiment: co-IP
Flag-USP9x = Flag-USP9x (UniProt Q93008); experiment: co-IP

binding (SOX2-HA (human)) | binding (Flag-USP9x) | Substance
binds |  | Flag-USP9x (from UniProt Q93008 1-2554) (enzyme)
 | binds | SOX2-HA (from UniProt P48431 1-317)
